# Results reported in EP2632470B1 (priority 2010, dated 2012).
# Read-outs that look alike come from different tables or passages of the source.
# Experiments:
# [1] = source (a) NIST Standard Reference Database 46; cited from earlier work
# [2] = Iron affinity, stepwise association constant log K1; assay type: physicochemical
# [3] = (c) interpolated from correlation between Zn^2+ and Fe^2+ data
SMILES,"Iron Affinity, log K1 Fe^2+, pH = 7.4 [1]","Iron Affinity, log K1 Fe^2+, pH = 7.4 [2, 3]",other results
"O=C(O)CN(CC(=O)O)[C@@H]1CCCC[C@H]1N(CC(=O)O)CC(=O)O (relative stereo) [trans-1,2-Cyclohexylenedinitrilotetraacetic acid]",14.0 (a),–,–
"c1cnc2c(c1)ccc1cccnc12 [1,10-Phenanthroline]",5.9 (a),–,–
"CC(C)c1cccc(O)c(=O)c1 [1-Hydroxy-4-(1-methylethyl)cyclohepta-3,5,7-trien-2-one]",–,4.9 (c),–
NCCc1ccccn1 [2-(2-aminoethyl)-pyridine],–,–,"Iron Affinity, log K1 Fe^2+, pH = 7.4 ([2]; (d) interpolated from correlation between Fe^3+ and Fe^2+ data): 5.2 (d)"
CCC(NCCNC(CC)C(=O)O)C(=O)O (stereo not drawn) [Ethylenediiminodi-2-butanoic acid],–,6.3 (c),–
"c1ccc(CN(CCN(Cc2ccccn2)Cc2ccccn2)Cc2ccccn2)nc1 [N,N,N',N-tetrakis(2-pyridylmethyl) ethylenediamine]",14.2 (a),–,–
